{
  "source": "patent US20140242093A1",
  "about": "“METHODS AND COMPOSITIONS FOR MODULATING THE INNATE IMMUNE RESPONSE AND/OR MYOGENESIS IN A MAMMALIAN SUBJECT” (FRED HUTCHINSON CANCER RESEARCH CENTER, priority 2011, published 2014)",
  "origin": "cited, not measured here",
  "conditions": "cited from earlier work",
  "note": "At least one compound was matched to its structure with a doubt left.",
  "data": [
    {"smiles": "C=CC[C@@H]1/C=C(\\C)C[C@H](C)C[C@H](OC)[C@H]2O[C@@](O)(C(=O)C(=O)N3CCCC[C@H]3C(=O)O[C@H](/C(C)=C/[C@@H]3CC[C@@H](O)[C@H](OC)C3)[C@H](C)[C@@H](O)CC1=O)[C@H](C)C[C@@H]2OC", "note": "[FK506]", "values": [
      {"measurement": "immunosuppressive activity relative to cyclosporin", "result": "10 100 times"}
    ]}
  ]
}
